The whole screen tested about 83,000 compounds, of which about 780 (0.94%) were called active. The shares of active, inactive and inconclusive entries below differ from those in the screen.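 Rule for the calls: active = mean inhibition of at least 50% with a set share of replicates also reaching that level; inconclusive = no clear call, values can overlap the other calls; inactive = the rest.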
Experiment: CD40 pathway blockade in BL2 B cells – cell-based, luciferase reporter, single point, primary screen (AID 1053188);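 note: 0% = neutral control wells and 100% = IKK inhibitor VII at 50 µM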
Conditions: BL2 NF-kB luciferase reporter, CD40L-induced, 4 h, hits give high values; at 10 µM unless noted

| Structure (SMILES) | inhibition |
| --- | --- |
| C[C@@H]1CN([C@H](C)CO)C(=O)c2c(c3ccccc3n2C)-c2ccccc2CO[C@H]1CN(C)C(=O)Nc1ccccc1C(F)(F)F | inconclusive: 46.4% [at 25 µM] |
| O=C1C(O)CC2c3ccccc3CC3(CCCC3)N12 (stereo not drawn) | inconclusive: 14.9% |
| CCOC(=O)N1CCC(=C2c3ccc(Cl)cc3CCc3cccnc32)CC1 | inconclusive: 25.3% |
| C[C@@H]1CN([C@@H](C)CO)S(=O)(=O)c2ccc(C#Cc3ccccc3F)cc2O[C@H]1CN(C)C(=O)Cc1cccnc1 | inconclusive: 41.8% [at 25 µM] |
| C[C@H]1CN([C@@H](C)CO)C(=O)c2ccccc2-c2ccccc2CO[C@H]1CN(C)C(=O)[C@@H](Cc1ccccc1)N(C)C | inconclusive: 49.2% [at 25 µM] |
| O=C(Nc1ccc(C(=O)NC2CCCCC2)cc1)c1cccnc1 | inconclusive: 30.4% |
| O=C(CN1CCN(Cc2ccccc2)CC1)N1CCCc2c1c(=O)oc1ccc(O)cc21 | inconclusive: 33.8% |
| O=C(C[C@@H]1C[C@H]2c3cc(NC(=O)Nc4ccc(C(F)(F)F)cc4)ccc3O[C@H]2[C@H](CO)O1)NCc1cc(F)ccc1F | inconclusive: 49.9% [at 25 µM] |
| N#C[C@@H]1[C@@H](c2ccccc2)[C@H](CO)N1C(=O)CN1CCOCC1 | inconclusive: 48.4% [at 25 µM] |
| Cc1cc(Nc2cccc([N+](=O)[O-])c2)n2c(nc3ccccc32)c1C#N | active: 77.8% |
| CC1(C(=O)Nc2ccc3nc[nH]c3c2)CCN1C(=O)c1ccccc1CCc1ccccc1 (stereo not drawn) | inactive: -0.613% |
| COc1ccc(CCN2CCC(Nc3nc4ccccc4n3Cc3ccc(F)cc3)CC2)cc1 | inconclusive: 36.9% |
| CCC(=O)N1CC2(CCN(Cc3ccc(Cl)cc3)CC2)c2c(n(C)c3cc(OC)ccc23)[C@@H]1CO | inactive: 4.53% [at 25 µM] |
| CN(C)C(=O)[C@@H]1[C@@H](CO)[C@@H]2Cn3c(ccc(C4=CCCC4)c3=O)[C@H]1N2Cc1cccnc1 | inactive: -2.5% [at 25 µM] |
| CCc1cnc(N2[C@H](C#N)[C@@H](c3ccccc3C3=CCCC3)[C@@H]2CO)s1 | inconclusive: 46.9% [at 25 µM] |
| N#Cc1cccc(-c2ccc([C@@H]3[C@@H]4CN(S(=O)(=O)c5ccc(-c6ccccc6)cc5)C[C@H]3N4)cc2)c1 | active: 60.8% |
| CCCNC(=O)C1(C)CCN1C(=O)c1ccc(C(C)(C)C)cc1 (stereo not drawn) | inactive: -7.32% |
| O=C(NCCC(c1ccccc1)c1ccco1)c1cccs1 (stereo not drawn) | inconclusive: -14.4% |
| CC(=O)Nc1ccc(S(=O)(=O)c2ccc(N)cc2)cc1 | inconclusive: 20.9% |
| O=C(Nc1ccccc1F)N1CCCCN2[C@H](CO)[C@H](c3ccc(/C=C/c4ccccc4)cc3)[C@H]2C1 | active: 88.5% [at 25 µM] |
| O=C1CC(c2ccc3c(c2)OCO3)Sc2nc3ccccc3n21 (stereo not drawn) | active: 59.7% |
| CC(=O)N(C)C[C@H]1Oc2ccc(NS(C)(=O)=O)cc2CC(=O)N(C)C[C@@H]1C | inactive: -1.07% |

| Structure (SMILES) | inhibition |
| --- | --- |
| Cc1noc(C)c1NC(=O)N(C)C[C@H]1OCCCC[C@H](C)Oc2ccc(NC(=O)Nc3ccc(C(F)(F)F)cc3)cc2C(=O)N([C@H](C)CO)C[C@@H]1C | inactive: 27% [at 25 µM] |
| CCCCc1nc2ccccc2[nH]1 | inconclusive: 13.3% |
| O=C(c1cccc(F)c1)N1C[C@H]2[C@@H](c3ccccc31)[C@H](CO)N2C(=O)c1ccccn1 | inactive: -12.7% [at 25 µM] |
| CN(C)CC/C=C1\c2ccccc2Sc2ccc(Cl)cc21 | inconclusive: 27% |
| C=CCOc1ccc(C(=O)CC)cc1OC | inconclusive: 14.9% |
| CC(C)OC(=O)CC1C(=O)NCCN1C(=S)NC(=O)c1cccs1 (stereo not drawn) | inconclusive: 28.2% |
| CC(=O)N1[C@H](CO)[C@@H]2c3ccccc3N(C(=O)c3ccc(F)cc3)C[C@@H]21 | inactive: 1.04% [at 25 µM] |
| O=C1c2ccccc2C(=O)N1/N=C/c1ccc(Oc2ccc([N+](=O)[O-])cn2)cc1 | inconclusive: 9.55% |
| CC(C)CC#Cc1ccc([C@@H]2[C@H]3CN(C(=O)Nc4ccccc4)CCCCN3[C@H]2CO)cc1 | inconclusive: 47% [at 25 µM] |
| Cc1noc(C)c1S(=O)(=O)Nc1ccc2c(c1)C(=O)N([C@@H](C)CO)C[C@@H](C)[C@@H](CN(C)C(=O)Nc1cccc3ccccc13)OCCCC[C@H](C)O2 | inconclusive: 54.2% [at 25 µM] |
| O=C(Nc1ccc(F)cc1)N1CC(=O)N2[C@@H](CO)[C@H](c3ccc(-c4ccc(F)cc4)cc3)[C@@H]2C1 | inactive: 38.8% |
| N#C[C@H]1[C@@H](c2ccccc2-c2ccccc2)[C@@H](CO)N1C(=O)NC1CCCC1 | inconclusive: 49.7% [at 25 µM] |
| COc1ccc(CN2CC3(CN(C(=O)Cc4ccccc4)C3)c3c([nH]c4cc(OC)ccc34)[C@@H]2CO)cc1 | inconclusive: 46% [at 25 µM] |
| CN1C(=O)c2cc(NC(=O)c3cccc(Cl)c3)ccc2OC[C@@H]2O[C@@H](CC(=O)NC3CCCCC3)CC[C@H]21 | inconclusive: 47.3% [at 25 µM] |
| COc1cc(CNCc2ccc(OC)c(OC)c2OC)cc(OC)c1 | inconclusive: 30.1% |
| FC(F)(F)c1nnc2c(Sc3ccccn3)nc3ccccc3n12 | inconclusive: 44.9% |
| CCN1C(=O)C(CC(=O)Nc2ccc(OC)cc2)N(CCc2ccc(F)cc2)C1=S (stereo not drawn) | inconclusive: 25.2% |
| Cc1ccccc1-c1ccc2c(c1)O[C@@H](CN(C)C(=O)Nc1ccc(C(F)(F)F)cc1)[C@@H](C)CN([C@@H](C)CO)S2(=O)=O | inconclusive: 46.9% [at 25 µM] |
| CCCc1cc(=O)[nH]c(=S)[nH]1 | inconclusive: 16.1% |
| C[C@@H]1CN([C@@H](C)CO)C(=O)c2ccccc2-c2ccccc2CO[C@@H]1CN(C)C(=O)c1cc(Cl)cc(Cl)c1 | inconclusive: 49.6% [at 25 µM] |
| COc1ccc(-c2ccc3c(c2)[C@@H]2[C@@H](CCN2C(=O)c2cccc(F)c2)[C@H](CO)N3C)cc1 | inactive: -6.46% [at 25 µM] |

Reformatted tab-delimited: entries from further up.
Structure (SMILES)	inhibition
COc1ccc(CN2CC3(CN(C(=O)Cc4ccccc4)C3)c3c([nH]c4cc(OC)ccc34)[C@@H]2CO)cc1	inconclusive: 46% [at 25 µM]
CN1C(=O)c2cc(NC(=O)c3cccc(Cl)c3)ccc2OC[C@@H]2O[C@@H](CC(=O)NC3CCCCC3)CC[C@H]21	inconclusive: 47.3% [at 25 µM]
